# PubChem BioAssay AID493014 (National Center for Advancing Translational Sciences (NCATS), 2011)
# The other results are listed elsewhere or left out. Shown are side measurements of this screen, not its main read-out; they come without a call. Compounds called inactive in the main read-out are mostly missing here. Words in brackets tell the shape of the fitted curve; partial curves, single points and poor fits give uncertain potencies.
# Assay: qHTS Assay to Find Inhibitors of Chronic Active B-Cell Receptor Signaling
# Conditions: ABC-DLBCL IkBa-CBG/CBR reporter, luminescence ratio (green luciferase fused to IkBa over red control in TMD8 lymphoma cells), 4 h
# How it was run: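 Cell line TMD8 (human ABC DLBCL), stably expressing tet-inducible CBG68-IkBa fusion and CBR; IMDM/0.5% FBS; cpd up to 46 uM; dox induction, 4 h, 37C/5% CO2; dual luminescence; green/red ratio; MG132 control.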
# [1] = measured here: CBR red luminescence, cell number
# [2] = measured here: IkBa-CBG green luminescence
Compound,AC50 [1],AC50 [2]
CCNc1c(N)c(=O)oc2ccccc12,"5.01 µM [falling, partial curve]",–
Cc1cc(NC(=O)COC(=O)c2cccc(O)c2)no1,"35.5 µM [falling, single point]",–
COCc1cc(C)nc2sc3c(=O)n(-c4ccccc4C(F)(F)F)nnc3c12,"5.01 µM [rising, full curve, poor fit]",–
CC(=O)Nc1ccc2nc(NC(=O)CS(=O)(=O)c3ccc(C)cc3)sc2c1,"14.1 µM [falling, single point]",–
CC(=O)Nc1ccc(/C=C/C(=O)c2ccccc2)cc1,"17.8 µM [falling, single point]","35.5 µM [rising, partial curve, poor fit]"
CSc1nsc(SCC(=O)Nc2ccc(OC(C)=O)cc2)n1,"7.08 µM [rising, partial curve, poor fit]",–
Cc1cc(Cl)c2oc(C(=O)N(C)CCc3cnn(C)c3)c(C)c2c1,"17.8 µM [rising, partial curve]",–
CCOc1ccc(C(Nc2cccnc2)c2cc(Cl)c3cccnc3c2O)cc1 (stereo not given),"10 µM [falling, partial curve, poor fit]",–
CC(C)C1=NN(C(=O)c2ccccc2)C(O)(C(C)(C)C)C1 (stereo not given),"5.01 µM [falling, partial curve]",–
CCOC(=O)c1ccc(CS(=O)c2ccc(Cl)cc2)o1 (stereo not given),"6.31 µM [falling, partial curve]",–
COc1ccc(/C=C/C(=O)Oc2cc(O)cc(O)c2)cc1,"7.94 µM [rising, partial curve]",–
Cc1ccc(OCCNC(=O)c2cc(C3CC3)nc3c2cnn3C(C)C)cc1,"0.164 µM [rising, full curve, poor fit]",–
O=C(Nc1ccc([N+](=O)[O-])cc1)C(=O)Nc1cccc(C(=O)O)c1,"0.316 µM [falling, full curve, poor fit]",–
Cc1ccc(O)c(NC(=O)c2cc(-c3ccccc3)on2)c1,"2.51 µM [falling, full curve]",–
O=C(CN1CCN(c2ccccc2)CC1)Nc1ccc(-n2cnnn2)cc1,"29.1 µM [falling, single point]",–
O=C(Nc1ccccc1)Nc1cccc(NC(=O)Nc2ccccc2)c1F,"7.08 µM [falling, partial curve, poor fit]",–
N#Cc1cccc(NC(=O)CNC(=O)Cc2ccccc2)c1,"3.98 µM [falling, partial curve, poor fit]",–
COc1ccc(-c2nc(C#N)c(NC(C)c3ccccc3)o2)cc1OC (stereo not given),"1.84 µM [rising, partial curve]","1.64 µM [falling, partial curve, poor fit]"
O=C(NN=C1CCCC1)c1cccs1,"7.31 µM [falling, partial curve]",–
Cc1ccc(N=Nc2ccc(N)cc2C)c(S(N)(=O)=O)c1,"3.98 µM [rising, full curve, poor fit]",–
O=C(NCCc1ccc(C(F)(F)F)cc1)C1CCC(=O)N(CCCc2ccccc2)C1 (stereo not given),"35.5 µM [falling, single point]",–

Compound,AC50 [1],AC50 [2]
COc1cccc(CNn2cnnc2)c1OCc1ccccc1F,"6.51 µM [falling, partial curve, poor fit]",–
COc1ccc(N2C(=O)CC(NC3CC3)C2=O)cc1 (stereo not given),"29.1 µM [rising, single point]",–
Cn1c(N)c(C(=O)c2cc(-c3ccccn3)nc3ccccc23)c(=O)[nH]c1=O,"35.5 µM [rising, single point]",–
O=C(Nc1cccc(Cl)c1)N1CCSc2cc(Cl)ccc21,"6.31 µM [rising, partial curve, poor fit]",–
c1ccc(CCc2nc3ccccc3[nH]2)cc1,"0.708 µM [rising, partial curve, poor fit]",–
COc1ccc(Nc2nc(-c3ccccc3)c3ccccc3n2)cc1,"10.3 µM [falling, partial curve]",–
CCCCCCOc1ccc(C(CC(=O)NC)C(=O)O)cc1 (stereo not given),"8.91 µM [rising, partial curve, poor fit]",–
Cc1ccc(/C=N/NC(=O)Cc2c(F)cccc2Cl)s1,"15.8 µM [falling, single point]",–
COc1ccc(OC)c(NC(=O)CCNC(=O)c2ccco2)c1,"0.708 µM [falling, partial curve]",–
Cc1cccc(NC(=O)[C@H](Cc2c[nH]c3ccccc23)NC(=O)[C@@H]2Cc3ccccc3CN2)c1,"12.6 µM [falling, partial curve]",–
O=C1c2ccccc2C(=O)c2c(NCc3cccnc3)cccc21,"28.2 µM [falling, partial curve, poor fit]",–
O=C(CS(=O)(=O)c1ccc(F)cc1)N1CCN(c2ccccc2)CC1,"13 µM [rising, partial curve, poor fit]",–
OCCc1c[nH]c2ccc(OCc3ccccc3)cc12,"1.58 µM [rising, partial curve, poor fit]",–
CCOc1ccc(CNC(=S)N/N=C\c2ccc([N+](=O)[O-])cc2)cc1,–,"23.1 µM [falling, single point]"
Cc1no[n+]([O-])c1COc1ccccc1/C=C1\NC(=S)NC1=O,"0.461 µM [falling, full curve, poor fit]",–
COCCNC(=O)c1cc(-c2cccs2)on1,"16.4 µM [falling, single point]",–
COc1cccc(NC(=O)c2sc(NC(=O)c3ccncc3)nc2C)c1,"15.8 µM [falling, partial curve, poor fit]",–
Cn1nnnc1Sc1ncnc2scc(-c3ccc([N+](=O)[O-])cc3)c12,"4.61 µM [rising, single point]","6.51 µM [falling, single point]"
COCc1ccc(O)c2ncccc12,"29.1 µM [rising, single point]","4.11 µM [falling, full curve]"
O=C(Nc1cc([N+](=O)[O-])ccc1O)c1cccc(NC(=O)c2ccco2)c1,"25.1 µM [falling, single point]",–
CC(c1ccccn1)N(C)C(=O)c1ccc2nc(Cc3ccccc3F)oc2c1 (stereo not given),"11.2 µM [rising, partial curve, poor fit]",–

Compound,AC50 [1],AC50 [2]
Cc1cccc(NC(=O)CNC(=O)COc2ccc(-c3ccc(C#N)cc3)cc2)c1C,"3.66 µM [rising, full curve]",–
CC(=O)c1ccc(Nc2nc3ccccc3nc2NS(=O)(=O)c2cccs2)cc1,"2 µM [rising, full curve]",–
FC(F)(F)c1cccc(N2CCN(C(=S)NC3CCCCC3)CC2)c1,"29.1 µM [falling, single point]",–
CCOC(=O)Cc1csc(NC(=O)CCCCCN2C(=O)c3ccccc3C2=O)n1,"35.5 µM [falling, single point]",–
COc1ccccc1C(C#N)c1cccc(Cl)n1 (stereo not given),"35.5 µM [rising, single point]",–
CC(CC(=O)N1CCN(c2ccccc2)CC1)S(=O)(=O)c1ccc2c(c1)NC(=O)CO2 (stereo not given),"35.5 µM [falling, single point]",–
O=S(=O)(Nc1ccc(Br)cc1)c1cccc(NC(=S)NCCN2CCOCC2)c1,"20 µM [falling, single point]",–
Cc1cc(C)c2nc(N3C(=O)C(O)=C(C(=O)c4ccco4)C3c3cccc(O)c3)sc2c1 (stereo not given),"20.6 µM [rising, single point]","16.4 µM [falling, single point]"
CC1CCCN(CCCNC(=O)c2cc3c(Cl)nc4ccccc4c3s2)C1 (stereo not given),"11.2 µM [falling, single point]","12.6 µM [rising, partial curve, poor fit]"
CCc1cccc(CC)c1NC(=S)NCCc1c(C)[nH]c2ccc(C)cc12,"29.1 µM [falling, single point]","18.4 µM [rising, partial curve, poor fit]"
CSc1nc2cc(Oc3cccc(Cl)c3Cl)c(Cl)cc2[nH]1,"35.5 µM [falling, single point]",–
NCCNC[C@@H]1COC2(CCCCCCCCCCC2)O1,"10 µM [falling, partial curve, poor fit]",–
CCN1C(=O)CC(N2CCOCC2)C1=O (stereo not given),"29.1 µM [rising, single point]",–
Cc1ccc(NC(=O)CSc2ccc(S(=O)(=O)N3CCCC3)cn2)cc1F,"0.731 µM [falling, full curve]",–
CCCCc1c(C)nc2cc(-c3ccco3)[nH]n2c1=O,"2.82 µM [falling, partial curve, poor fit]",–
CCOC(=O)c1ccc(NC(=S)NCCc2ccc(F)cc2)cc1,"0.562 µM [falling, full curve]",–
CN(Cc1ccco1)S(=O)(=O)c1nnc(NC(=O)c2ccccc2Cl)s1,"28.2 µM [rising, single point]",–
CC(=O)Nc1ccc(Sc2ncccc2C(=O)Nc2ccc(F)cc2)cn1,"7.94 µM [falling, partial curve, poor fit]",–
O=C(CN1C(=O)C2CC=CCC2C1=O)Nc1nnc(SCc2c(Cl)cccc2Cl)s1 (stereo not given),"23.1 µM [falling, single point]",–
CC12CC(c3ccccc3O1)N(C(=O)c1ccco1)C(=S)N2c1ccc(F)cc1 (stereo not given),"35.5 µM [falling, single point]",–
O=C(CCc1ccccc1)NC1CCS(=O)(=O)C1 (stereo not given),"5.17 µM [rising, full curve]",–

# Part of the list above in order of count of non-hydrogen atoms, high to low.
Compound,AC50 [1],AC50 [2]
O=C(CN1C(=O)C2CC=CCC2C1=O)Nc1nnc(SCc2c(Cl)cccc2Cl)s1 (stereo not given),"23.1 µM [falling, single point]",–
CC(=O)c1ccc(Nc2nc3ccccc3nc2NS(=O)(=O)c2cccs2)cc1,"2 µM [rising, full curve]",–
CCc1cccc(CC)c1NC(=S)NCCc1c(C)[nH]c2ccc(C)cc12,"29.1 µM [falling, single point]","18.4 µM [rising, partial curve, poor fit]"
CN(Cc1ccco1)S(=O)(=O)c1nnc(NC(=O)c2ccccc2Cl)s1,"28.2 µM [rising, single point]",–
CCCCc1c(C)nc2cc(-c3ccco3)[nH]n2c1=O,"2.82 µM [falling, partial curve, poor fit]",–
